According to PubChem BioAssay AID1768 (National Center for Advancing Translational Sciences (NCATS), 2009):
Screen size: about 270,000 compounds; about 620 (0.23%) were called active. All entries are inconclusive by the source's own rule. Clear calls are listed elsewhere. Calls follow the shape of the dose curve; as a rule, active = well fitted inhibition curve with a large enough effect in the polarisation, with a control signal flat (not every such curve was filed as active); inconclusive = small, poorly fitted or top-dose-only effect, or effect the other way, or a change in a side signal; inactive = no such curve, though single readings can be large or run the other way; the % refers to the polarisation.

The chains behind the UniProt entries cited, without tags or fusion partners.
UniProt O00255, whole entry: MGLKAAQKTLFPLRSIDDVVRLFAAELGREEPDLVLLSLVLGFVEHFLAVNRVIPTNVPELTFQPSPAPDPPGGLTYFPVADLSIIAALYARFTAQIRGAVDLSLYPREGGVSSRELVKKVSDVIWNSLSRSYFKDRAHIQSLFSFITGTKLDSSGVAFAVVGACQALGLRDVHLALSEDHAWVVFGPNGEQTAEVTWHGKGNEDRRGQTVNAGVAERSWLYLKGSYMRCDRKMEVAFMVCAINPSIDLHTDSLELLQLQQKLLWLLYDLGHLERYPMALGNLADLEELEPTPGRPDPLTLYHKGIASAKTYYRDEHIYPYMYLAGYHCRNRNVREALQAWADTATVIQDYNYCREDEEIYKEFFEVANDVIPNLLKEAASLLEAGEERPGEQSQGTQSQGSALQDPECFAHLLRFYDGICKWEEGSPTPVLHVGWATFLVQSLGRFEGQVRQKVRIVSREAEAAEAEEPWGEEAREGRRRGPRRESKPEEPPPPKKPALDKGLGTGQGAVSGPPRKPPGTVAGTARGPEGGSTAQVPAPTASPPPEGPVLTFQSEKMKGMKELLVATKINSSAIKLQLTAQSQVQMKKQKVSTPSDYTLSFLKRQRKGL
UniProt Q03164, whole entry partner: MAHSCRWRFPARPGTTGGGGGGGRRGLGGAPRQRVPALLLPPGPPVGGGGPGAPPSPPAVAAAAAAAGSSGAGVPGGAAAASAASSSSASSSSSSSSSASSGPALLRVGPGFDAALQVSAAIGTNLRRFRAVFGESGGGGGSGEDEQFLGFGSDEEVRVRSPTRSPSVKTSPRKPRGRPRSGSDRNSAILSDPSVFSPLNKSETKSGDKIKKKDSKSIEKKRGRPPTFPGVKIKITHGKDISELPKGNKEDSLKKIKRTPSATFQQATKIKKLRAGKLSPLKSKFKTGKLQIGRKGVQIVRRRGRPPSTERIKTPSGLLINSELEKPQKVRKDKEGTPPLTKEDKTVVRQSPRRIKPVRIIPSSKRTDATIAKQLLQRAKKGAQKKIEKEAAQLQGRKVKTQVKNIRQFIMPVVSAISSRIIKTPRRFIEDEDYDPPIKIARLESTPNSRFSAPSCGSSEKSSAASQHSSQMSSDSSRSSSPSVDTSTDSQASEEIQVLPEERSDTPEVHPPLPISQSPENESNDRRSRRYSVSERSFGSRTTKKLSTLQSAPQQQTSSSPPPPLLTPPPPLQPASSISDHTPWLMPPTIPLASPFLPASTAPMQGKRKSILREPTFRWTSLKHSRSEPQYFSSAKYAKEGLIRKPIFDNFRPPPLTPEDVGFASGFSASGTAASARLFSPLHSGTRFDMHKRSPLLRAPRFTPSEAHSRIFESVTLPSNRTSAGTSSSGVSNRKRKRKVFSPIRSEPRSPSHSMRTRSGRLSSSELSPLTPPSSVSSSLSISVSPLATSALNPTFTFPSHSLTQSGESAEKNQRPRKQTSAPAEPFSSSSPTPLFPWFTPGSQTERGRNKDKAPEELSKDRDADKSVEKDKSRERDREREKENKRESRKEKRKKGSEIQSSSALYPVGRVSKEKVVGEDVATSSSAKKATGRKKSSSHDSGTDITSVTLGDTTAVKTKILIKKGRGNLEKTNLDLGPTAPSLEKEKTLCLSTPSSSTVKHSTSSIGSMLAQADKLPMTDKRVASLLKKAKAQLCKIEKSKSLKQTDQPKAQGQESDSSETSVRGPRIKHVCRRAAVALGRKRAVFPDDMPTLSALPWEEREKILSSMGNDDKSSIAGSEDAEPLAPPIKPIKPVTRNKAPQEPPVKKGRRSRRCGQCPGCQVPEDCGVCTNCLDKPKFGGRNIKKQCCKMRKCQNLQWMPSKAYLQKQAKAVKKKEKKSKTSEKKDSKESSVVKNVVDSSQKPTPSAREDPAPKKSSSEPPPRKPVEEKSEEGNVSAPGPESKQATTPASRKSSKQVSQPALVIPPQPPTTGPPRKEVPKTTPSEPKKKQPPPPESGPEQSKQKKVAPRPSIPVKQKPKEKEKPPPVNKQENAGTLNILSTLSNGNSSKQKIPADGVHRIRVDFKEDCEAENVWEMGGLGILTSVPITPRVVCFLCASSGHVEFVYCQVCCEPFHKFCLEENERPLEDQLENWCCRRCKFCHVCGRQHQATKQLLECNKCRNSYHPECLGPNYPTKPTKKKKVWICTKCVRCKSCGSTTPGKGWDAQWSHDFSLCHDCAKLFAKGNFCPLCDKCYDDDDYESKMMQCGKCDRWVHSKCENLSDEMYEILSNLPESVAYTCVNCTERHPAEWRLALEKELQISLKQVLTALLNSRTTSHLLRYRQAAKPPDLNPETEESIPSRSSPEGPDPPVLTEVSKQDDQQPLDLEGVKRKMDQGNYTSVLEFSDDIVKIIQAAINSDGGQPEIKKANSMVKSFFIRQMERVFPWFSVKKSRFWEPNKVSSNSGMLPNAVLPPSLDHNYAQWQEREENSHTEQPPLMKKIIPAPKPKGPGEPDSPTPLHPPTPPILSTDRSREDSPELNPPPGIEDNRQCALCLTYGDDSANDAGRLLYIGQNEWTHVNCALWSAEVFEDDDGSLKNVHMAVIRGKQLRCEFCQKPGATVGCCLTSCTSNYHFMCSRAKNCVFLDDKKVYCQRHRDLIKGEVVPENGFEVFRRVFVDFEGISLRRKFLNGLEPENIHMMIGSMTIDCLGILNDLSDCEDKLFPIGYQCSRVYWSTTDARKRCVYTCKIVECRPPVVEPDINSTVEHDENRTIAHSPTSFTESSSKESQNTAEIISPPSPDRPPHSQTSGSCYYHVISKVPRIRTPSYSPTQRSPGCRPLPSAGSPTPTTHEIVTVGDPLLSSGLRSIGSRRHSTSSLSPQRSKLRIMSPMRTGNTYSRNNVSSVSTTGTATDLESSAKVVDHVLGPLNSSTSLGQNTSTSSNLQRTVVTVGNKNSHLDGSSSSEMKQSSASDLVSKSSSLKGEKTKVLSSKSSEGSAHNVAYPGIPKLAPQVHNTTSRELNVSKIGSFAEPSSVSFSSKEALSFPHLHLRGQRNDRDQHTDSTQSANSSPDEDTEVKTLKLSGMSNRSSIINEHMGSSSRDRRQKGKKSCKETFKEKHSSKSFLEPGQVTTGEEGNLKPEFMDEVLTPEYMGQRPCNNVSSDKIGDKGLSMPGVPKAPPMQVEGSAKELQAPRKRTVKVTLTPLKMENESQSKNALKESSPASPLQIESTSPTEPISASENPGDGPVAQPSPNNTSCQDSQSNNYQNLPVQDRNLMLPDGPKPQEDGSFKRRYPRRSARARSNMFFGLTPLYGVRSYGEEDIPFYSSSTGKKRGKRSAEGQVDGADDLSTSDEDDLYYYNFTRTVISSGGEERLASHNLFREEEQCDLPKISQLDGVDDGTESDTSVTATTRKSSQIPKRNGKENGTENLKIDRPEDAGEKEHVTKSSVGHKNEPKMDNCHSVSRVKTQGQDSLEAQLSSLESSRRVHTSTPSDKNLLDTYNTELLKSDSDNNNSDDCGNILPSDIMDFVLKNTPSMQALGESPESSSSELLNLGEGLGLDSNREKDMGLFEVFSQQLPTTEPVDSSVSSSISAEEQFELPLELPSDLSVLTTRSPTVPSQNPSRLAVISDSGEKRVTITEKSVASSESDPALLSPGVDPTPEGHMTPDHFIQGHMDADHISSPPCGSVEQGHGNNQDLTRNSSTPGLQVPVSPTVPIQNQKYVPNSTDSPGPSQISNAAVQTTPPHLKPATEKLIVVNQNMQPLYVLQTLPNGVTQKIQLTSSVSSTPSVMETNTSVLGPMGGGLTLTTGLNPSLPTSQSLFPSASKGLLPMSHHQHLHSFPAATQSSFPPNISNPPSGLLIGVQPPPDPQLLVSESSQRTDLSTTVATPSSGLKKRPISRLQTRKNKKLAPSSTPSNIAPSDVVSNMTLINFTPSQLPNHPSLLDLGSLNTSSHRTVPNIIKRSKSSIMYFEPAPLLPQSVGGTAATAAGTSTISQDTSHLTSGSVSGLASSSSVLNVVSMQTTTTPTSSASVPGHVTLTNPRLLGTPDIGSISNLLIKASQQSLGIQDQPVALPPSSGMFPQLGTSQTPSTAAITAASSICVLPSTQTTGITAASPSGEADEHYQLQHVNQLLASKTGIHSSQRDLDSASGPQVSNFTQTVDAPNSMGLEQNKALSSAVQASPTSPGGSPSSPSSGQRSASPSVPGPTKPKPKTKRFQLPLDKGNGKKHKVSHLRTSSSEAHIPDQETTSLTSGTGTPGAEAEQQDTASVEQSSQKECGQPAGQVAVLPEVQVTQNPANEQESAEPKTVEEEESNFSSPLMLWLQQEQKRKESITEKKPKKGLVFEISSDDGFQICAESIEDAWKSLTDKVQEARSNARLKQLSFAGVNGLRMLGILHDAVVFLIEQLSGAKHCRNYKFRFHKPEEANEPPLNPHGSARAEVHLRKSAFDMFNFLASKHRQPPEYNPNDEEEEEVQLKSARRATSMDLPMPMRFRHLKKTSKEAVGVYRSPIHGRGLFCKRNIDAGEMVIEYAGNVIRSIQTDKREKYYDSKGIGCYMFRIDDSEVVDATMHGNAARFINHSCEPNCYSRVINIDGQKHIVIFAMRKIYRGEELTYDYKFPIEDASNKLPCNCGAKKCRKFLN

Molecular target: Menin (Homo sapiens) (UniProt O00255)
Assay: qHTS Assay for Inhibitors Targeting the Menin-MLL Interaction in MLL Related Leukemias: Competition With Texas Red Labeled MLL-derived Mutant Peptide
Conditions: fluorescence polarization
Potency is read from the fitted curve at half-maximal effect.

Row | Compound | Potency
1 | O=C(OCCN1CCN(CCOCc2ccccc2)CC1)C(O)(c1ccccc1)c1ccccc1 | inconclusive: 25.1 µM
2 | Cc1nc2ccc3ccccc3c2o1.O=[N+]([O-])c1cc([N+](=O)[O-])c(O)c([N+](=O)[O-])c1 | inconclusive: 28.2 µM
3 | O=[N+]([O-])c1ccc2c(c1)C=Nc1ccccc1O2 | inconclusive: 25.1 µM
4 | Cc1cc(C)cc(OP(C)(=O)Nc2ccc(C)cc2C)c1 (stereo not drawn) | inconclusive: 11.2 µM
5 | CC(C)N(CCCl)C(C)C | inconclusive: 35.5 µM
6 | O=[N+]([O-])c1cc([N+](=O)[O-])c(-n2nnc3ccccc32)c([N+](=O)[O-])c1 | inconclusive: 31.6 µM
7 | O=[N+]([O-])c1cc([N+](=O)[O-])c(Nc2nnnn2CCO)c([N+](=O)[O-])c1 | inconclusive: 14.1 µM
8 | CCCOc1ccc(NP(C)(=O)Oc2ccc(Cl)cc2)cc1 (stereo not drawn) | inconclusive: 10 µM
